PubChem BioAssay AID662 (National Center for Advancing Translational Sciences (NCATS), 2007)
The list shows a part of the results. These are further read-outs of the screen, such as a control signal, another cell line or another target. No call is given for them. Most of these compounds were active or inconclusive in the main read-out, so they are no random draw. Words in brackets tell the shape of the fitted curve; partial curves, single points and poor fits give uncertain potencies.

test: Cell signaling CRE-BLA (Fsk stim); conditions: CHO CRE-bla reporter (cAMP response element driving beta-lactamase), forskolin EC10, beta-lactamase ratio; measured here: 460 nm blue channel
Summary of the method: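 Titrated compounds plus EC10 NKH 477 on CHO CRE-bla cells, 3 h, 37 °C. CCF4, 2 h RT. Ratio 460/530 nm → AC50.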

SMILES | AC50
O=C(Oc1cc(=O)oc2ccccc12)c1ccco1 | 25.1 µM [rising, single point]
CCn1nc(NC(=O)c2ccncc2)c2cc3ccccc3nc21 | 10 µM [rising, partial curve]
Cn1c(C(=O)N2CCCc3ccccc32)cc2c(=O)n3ccccc3nc21 | 12.6 µM [rising, partial curve]
Oc1ccc([C@@H]2CNCCc3c2cc(O)c(O)c3Cl)cc1 | 25.1 µM [falling, partial curve, poor fit]
N#Cc1nc(COc2ccccc2)oc1N1CCC(Cc2ccccc2)CC1 | 2 µM [rising, full curve]
CC(C)n1c(SCC(N)=O)nc2c1c(=O)n(C)c(=O)n2C | 25.1 µM [rising, single point]
COC(=O)C1=C(C)OC(N)=C(C#N)C1c1cc(OC)c(OCC(N)=O)cc1Cl (stereo not drawn) | 0.00794 µM [falling, full curve]
NC(=O)NC(=O)Nc1ccccc1Cl | 0.00398 µM [falling, full curve, poor fit]
CCCN1C(=O)SC(CC(=O)Nc2ccc(Br)cc2)C1=O (stereo not drawn) | 1.26 µM [rising, partial curve]
Cc1ccc2nc(NC(=O)C3CCN(S(=O)(=O)c4cccs4)CC3)sc2c1 | 0.398 µM [falling, single point]
COc1cccc2c1nc(C)c1cc(C)oc12 | 10 µM [rising, partial curve]
COc1ccc(-c2oc3ncnc(NCCCN4CCOCC4)c3c2-c2ccc(OC)cc2)cc1 | 5.01 µM [rising, partial curve]
Cc1ccccc1NC(=O)CSc1nc(N)c(C#N)c(-c2cccs2)c1C#N | 12.6 µM [rising, single point]
CCc1[nH]nc2c1C1(CCN(C(=O)OCc3ccccc3)CC1)C(C#N)=C(N)O2 | 7.94 µM [rising, partial curve]
NCCSc1nc(-c2ccccc2)c(-c2ccccc2)o1 | 1 µM [rising, single point]
COc1nc2cc(C)ccc2cc1-c1noc(-c2cccnc2)n1 | 20 µM [falling, single point]
O=C(Nc1cc(C(F)(F)F)ccc1N1CCOCC1)c1cncc(Br)c1 | 12.6 µM [rising, single point]
O=C(Nc1ncccc1O)c1cccc(S(=O)(=O)N2CCc3ccccc32)c1 | 3.16 µM [falling, partial curve]
Cc1c(NC(=O)CSc2ccccc2C(=O)Nc2cccnc2)c(=O)n(-c2ccccc2)n1C | 5.01 µM [rising, single point]
COc1ccc(NC2=CC(=O)CC(C)(C)C2)cc1OC | 15.8 µM [rising, single point]
Cn1c(=O)c(-c2cccs2)nc2cncnc21 | 10 µM [rising, partial curve]
CCn1c2ccccc2c2nc3cc(S(=O)(=O)N4CCOCC4)ccc3nc21 | 2 µM [rising, full curve]
Cc1ccnc(SCCn2c(Br)nc3c2c(=O)[nH]c(=O)n3C)n1 | 3.98 µM [rising, partial curve]

Some of the entries so far, as labelled records.
O=C(Nc1ncccc1O)c1cccc(S(=O)(=O)N2CCc3ccccc32)c1
  AC50: 3.16 µM [falling, partial curve]
Cc1c(NC(=O)CSc2ccccc2C(=O)Nc2cccnc2)c(=O)n(-c2ccccc2)n1C
  AC50: 5.01 µM [rising, single point]
COc1ccc(NC2=CC(=O)CC(C)(C)C2)cc1OC
  AC50: 15.8 µM [rising, single point]
Cn1c(=O)c(-c2cccs2)nc2cncnc21
  AC50: 10 µM [rising, partial curve]

The list continues.

SMILES | AC50
Cc1noc(C)c1C(=O)N1CCC2(CCN(C(=O)Nc3ccccc3)CC2)CC1 | 5.01 µM [falling, single point]
N#Cc1cccc(-c2nc(Nc3ccncc3)c3ccccc3n2)c1 | 2.51 µM [rising, full curve]
CCc1nn(CC(=O)NCCCN(CC)Cc2ccccc2)c(=O)c2cc3sccc3n12 | 6.31 µM [falling, partial curve]
COCCOC(=O)C(C#N)c1nc2ccccc2nc1N1CCCC1 (stereo not drawn) | 1.26 µM [rising, partial curve]
COCCNc1nnc(SCC(=O)c2ccc3c(c2)OCO3)s1 | 10 µM [rising, single point]
COCCCNC(=O)c1cc2c(=O)n3cccc(C)c3nc2n(C(C)C)c1=N | 3.16 µM [rising, full curve]
CN1CCN(c2nc(-c3ccc(N(C)C)cc3)nc3ccccc23)CC1 | 10 µM [rising, single point]
COc1ccc(Cl)cc1NC(=O)C1CCCN(c2cc(C)nc3ncnn23)C1 (stereo not drawn) | 10 µM [rising, partial curve]
CCCCn1c(=O)[nH]c(=O)c2c1nc(COc1ccc(C#N)cc1)n2CCC | 12.6 µM [rising, partial curve]
CCCNC(=O)Cc1cc(=O)[nH]c(=O)[nH]1 | 1 µM [rising, partial curve]
CCCCC(c1nnnn1CCOC)N1CCN(C(=O)c2ccco2)CC1 (stereo not drawn) | 3.16 µM [rising, single point]
S=c1[nH]c2ccc(Cl)cc2[nH]1 | 0.126 µM [falling, full curve, poor fit]
CN(C)S(=O)(=O)c1ccc(S(=O)(=O)N(CC(=O)Nc2ccccc2)Cc2ccco2)cc1 | 0.1 µM [falling, single point]
CCN1CCN(/C=N/c2nc3c(s2)CCCC3)CC1 | 3.16 µM [falling, full curve, poor fit]
Nc1nc(CN2CCN(c3ccc(F)cc3)CC2)nc(N2CCCc3ccccc32)n1 | 0.126 µM [falling, full curve, poor fit]
COc1ccc(-n2cnnc2SCc2cnc(-c3ccccc3)s2)cc1 | 15.8 µM [rising, single point]
O=C(OCc1cc2ccccc2[nH]c1=O)c1cccnc1 | 6.31 µM [rising, partial curve]
CCCCn1c(CN2CCN(c3cccc(Cl)c3)CC2)nc2c1c(=O)[nH]c(=O)n2C | 10 µM [rising, partial curve]
C=CCNc1sc(C(=O)c2cccs2)c(N)c1C#N | 10 µM [rising, partial curve]
CCOc1ccc(-n2c(SCc3nc(-c4cccs4)no3)nnc2-c2ccncc2)cc1 | 10 µM [rising, partial curve]
O=C(c1ccc(COc2ccc(F)cc2)o1)n1cccn1 | 25.1 µM [rising, single point]
Cc1nn(Cc2ccccc2)c(C)c1NC(=O)c1cc2nc(-c3ccco3)cc(C(F)(F)F)n2n1 | 7.94 µM [rising, partial curve]
COc1cccc(OC)c1C(=O)N1CCN(c2ccccn2)CC1 | 0.0398 µM [falling, full curve, poor fit]

SMILES | AC50
CN(C)/C=N/c1c(C(=O)NCc2ccccc2)nnn1Cc1ccccc1 | 0.1 µM [falling, full curve]
COc1ccc(S(=O)(=O)N2CCN(C(=O)CCC3CCCC3)CC2)cc1 | 1.26 µM [rising, partial curve, poor fit]
COCCn1c(=O)c(-c2ccc(Cl)cc2)nc2cnc(Oc3cccc(Cl)c3)nc21 | 3.16 µM [rising, full curve]
c1ccc(-c2cc(-c3nc(-c4ccccn4)no3)c3ccccc3n2)cc1 | 3.16 µM [rising, full curve]
CCNc1ncc2nc(-c3ccc(OC)cc3)c(=O)n(CCOC)c2n1 | 0.501 µM [rising, single point]
CCOc1cc(-c2noc(N)c2C(=O)OC)cc(OCC)c1OCC | 15.8 µM [rising, partial curve]
CCOC(=O)C1CCCN(C(=O)c2cc(-c3ccc(C)cc3)on2)C1 (stereo not drawn) | 10 µM [rising, partial curve]
CC(C)C(c1nnnn1Cc1ccco1)N1CCN(c2cccc(Cl)c2)CC1 (stereo not drawn) | 0.126 µM [falling, partial curve, poor fit]
CCOc1ccccc1NC(=O)N1C2CCCC1CC(NC(=O)C1CC1)C2 (stereo not drawn) | 12.6 µM [rising, partial curve]
COc1ccc2nc3oc(C(=O)NCc4cccs4)cc3cc2c1 | 7.94 µM [rising, partial curve, poor fit]
CCOc1ccc(NC(=O)CSc2nc3cccnc3n2CC)cc1 | 15.8 µM [rising, single point]
Cc1sc(NC(=O)CSc2nc(N)n(CC(=O)c3ccccc3)n2)c(C#N)c1C | 5.01 µM [rising, partial curve]
CCn1c(N2CCC(Cc3ccccc3)CC2)nc2c1c(=O)[nH]c(=O)n2C | 1 µM [rising, full curve]
COc1ncc2nc(-c3cn(C)c4ccccc34)c(=O)n(C[C@H]3CCCO3)c2n1 | 12.6 µM [rising, partial curve, poor fit]
CCn1c(SCC(=O)c2ccc(CNC(C)=O)o2)nnc1-c1cccs1 | 5.01 µM [falling, partial curve]
Cc1cc(C(=O)OCC(=O)c2ccc(Br)s2)no1 | 5.01 µM [falling, single point]
CCCn1c(SCC(=O)N2CCc3ccccc3C2)nc2c1c(=O)n(C)c(=O)n2C | 10 µM [rising, single point]
COC(=O)C(CC(C)C)NC(=O)c1cc(OC)c(OC)c(OC)c1 (stereo not drawn) | 12.6 µM [rising, partial curve]
Cc1nc2nc(C)c(CCC(=O)N3CCN(c4ccccn4)CC3)c(C)n2n1 | 0.01 µM [falling, full curve, poor fit]
Cc1ccc(S(=O)(=O)C(C#N)c2nc3ccccc3nc2N2CC(C)OC(C)C2)cc1C (stereo not drawn) | 10 µM [rising, partial curve]
Cc1cc(NC(=O)c2cccc(S(=O)(=O)N3CCCC3)c2)no1 | 3.98 µM [falling, partial curve]
O=C1CC(O)(C(F)F)Oc2ccc3ccccc3c21 (stereo not drawn) | 3.98 µM [falling, partial curve]
